Patent US8809280B2, “Therapeutic peptides” (Lytix Biopharma AS, priority 2009, dated 2014)
At least one peptide structure holds a part that was inferred or is arguable (an end, a ring closure or a residue). Some entries repeat one wording, which the source may state once for all of them.

Key:
human red blood cells = type: cell-based; details: Example 1; 50% hemolysis of human red blood cells; highest concentration tested 1000 μg/ml
Protocol: The hemolytic testing against human erythrocytes was conducted by Lytix Biopharma A/S (Tromso, Norway). Each compound was tested from a concentration of 1 mg/ml and lower, except 4k and 4n which was only tested up to 0.5 mg/ml due to solubility problems. 8 mL of blood was collected from adult healthy male donors. The blood was divided equally and distributed in a commercial available EDTA containing test tube (BD vacutainer, 7.2 mg K2 EDTA) and in a 10 mL reaction vial containing 40 μL of a heparin solution (1000 U/mL in 0.9% sodium chloride). After 30 minutes the hematocrit of the EDTA treated blood was determined. The heparinized blood was centrifuged for 10 minutes at 1500 rpm and the supernatant removed. Subsequently the RBCs were washed with prewarmed PBS three times, and diluted to 10% hematocrit. The compounds dissolved in PBS (concentration 1 μg/mL to 1000 µg/mL) and the erythrocytes were incubated under agitation at 37° C. for one hour. A positive control with an end concentration of 0.1% TRITON X-100 (nonionic surfactant) and a negative control containing pure PBS buffer were included. The samples were centrifuged (4000 rpm) for 5 minutes and the absorption of the supernatant was measured at 405 nm. The values given in Table 1A correspond to 50% hemolysis.
The plasma fraction of heparinized human blood was first removed by centrifugation and three additional washing steps with 37° C. pre-warmed phosphate buffered saline (PBS). Subsequently, the human RBC were diluted to 10% hematocrit and the β^2,2-amino acid derivatives were dissolved in PBS providing concentrations ranging from 1-1000 μg/mL. The diluted RBC were added to the compound solutions to a final erythrocyte concentration of 1% v/v. PBS and TRITON X-100 (non-ionic surfactant), in a final concentration of 0.1% v/v, were included as negative and positive control. […] Release of hemoglobin was determined by measuring the absorbance of the supernatant at 405 nm. Hemolytic activity was calculated as the ratio of treated sample with β^2,2-amino acid derivative and tenside treated sample according to the formula: […]

[1] = test system: Escherichia coli (ATTC 25922); type: cell-based; details: Example 1, di TFA salts, highest concentration tested 200 μg/ml
Protocol: The antimicrobial testing was conducted by TosLab A/S (Tromsø, Norway). Each compound was diluted to 1 mg/ml in water and tested in duplicates at 200, 100, 50, 35, 15, 10, 5, 2.5, 1, 0.5 μg/ml except 4n which was tested at 50, 35, 15, 10, 5, 2.5, 1, 0.5 μg/ml due to solubility problems. All tested compounds were di TFA salts.
The bacterial strains were grown in 2% Bacto Peptone water until exponential growth was achieved. […] A bacterial concentration of 2×10^6 cfu/ml was used. Both negative control (no peptide) and positive control (Gentamicin) was used for all bacterial strains. Growth or no growth was judged by the turbidity of the wells.
Escherichia coli (ATTC 25922)
Antimicrobial assays: 200 μg/ml
Suitable methodologies are described in Example 1.
Each compound was tested in duplicates at 200, 100, 50, 35, 15, 10, 5, 2.5, 1, 0.5 μg/ml. All tested compounds were di-trifluoroacetic acid salts.

`CC(C)(C)c1ccc(CC(CN)(Cc2ccc(C(C)(C)C)cc2)C(=O)N[C@@H](CCCNC(=N)N)C(N)=O)cc1` [Compound 4k] was tested, and the “EC50 RBC” value (human red blood cells) was “— (The notation “—”denotes no detectable activity (MIC or EC50) within the concentration range tested.)”.
`COc1cc(CC(CN)(Cc2cc(OC)cc(OC)c2)C(=O)N[C@@H](CCCNC(=N)N)C(N)=O)cc(OC)c1` [Compound 4m] was tested, and the “EC50 RBC” value (human red blood cells) was “— (The notation “—”denotes no detectable activity (MIC or EC50) within the concentration range tested.)” and the “MIC E. coli” value [1] was “— (The notation “—”denotes no detectable activity (MIC or EC50) within the concentration range tested.)”.
In the case of `Cc1ccc(CC(CN)(Cc2ccc(C)cc2)C(=O)N[C@@H](CCCNC(=N)N)C(N)=O)cc1` [Compound 4h], the “EC50 RBC” value (human red blood cells) is reported as “— (The notation “—”denotes no detectable activity (MIC or EC50) within the concentration range tested.)” and the “MIC E. coli” value [1] is reported as “— (The notation “—”denotes no detectable activity (MIC or EC50) within the concentration range tested.)”.
